Reference: US20180111972A1
These are yes or no findings as the source states them, for the method shown. Some entries that bind do so weakly or less than the wild type. For some assays here: Tags and fused reporters may be left off the sequences shown.

B1: PV1 PDGF/VEGF hybrid construct, yeast-displayed (designed binder)
chain: IAEPAMIAECKTRETLVDIFQEYPDEIEYIFKPSCVPLMRCSGCCNNRNVQCRPTEESNITMQIMRIKPHQGQHIGEMSFLQHLACKCETVAAGSTSGSGKSSEGKGEVVKFMDVYQRSYCHPITEVFEISRRLIDRTNANFLVWPPCVEVQRCGGCCNDEGLECVPTQVQLRPVQVRKIEIVRKKPIFKKATVTLEDHNKCECRPKKD
B2: PV7 PDGF/VEGF hybrid construct, yeast-displayed (designed binder)
chain: IAEPAMIAECKTRETLVDIFQEYPDEIEYIFKPSCVPLMRCSGCCNNRNVQCRPTEESNITMQIMRIKPHQGQHIGEMSFLQHNKCKCETVAAGSTSGSGKSSEGKGEVVKFMDVYQRSYCHPITEVFEISRRLIDRTNANFLVWPPCVEVQRCGGCCNDEGLECVPTQVQLRPVQVRKIEIVRKKPIFKKATVTLEDHLACECRPKKD
B3: PV8 PDGF/VEGF hybrid construct, yeast-displayed (designed binder)
chain: IAEPAMIAECKTIETLVDIFQEYPDEIEYIFKPSCVPLMRCSGCCNNRNVQCRPTEESNITMQIMRIKPHQGQHIGEMSFLQHLACKCETVAAGSTSGSGKSSEGKGEVVKFMDVYQRSYCHPRTEVFEISRRLIDRTNANFLVWPPCVEVQRCGGCCNDEGLECVPTQVQLRPVQVRKIEIVRKKPIFKKATVTLEDHNKCECRPKKD
B4: PVAM-S (PV R32A), soluble, FLAG and hexahistidine tags (designed binder)
chain: DYKDDDDKIAEPAMIAECHPIETLVDILQEYPDEIGYIFKPSCVPLMRCGGCCNNRNVQCRPTEESNITMQIMRIKPHRGQHIGEMSFLQHNKCRCETVAAGSTSGSGKSSEGKGEVVKFMDVYQRSYCKTRTEVFEISRRLIDATNANFLVWPPCVEVQRCSGCCNHEGLECVPTQVQLRPVQVRKIEFVRKKPIFKKATVTLEDHLACECRPKKDHHHHHH
B5: scVEGFwt, single-chain version of VEGF-A, soluble, FLAG and hexahistidine tags (ligand)
chain: DYKDDDDKEVVKFMDVYQRSYCHPIETLVDIFQEYPDEIEYIFKPSCVPLMRCGGCCNDEGLECVPTEESNITMQIMRIKPHQGQHIGEMSFLQHNKCECRPKKDGSTSGSGKSSEGKGEVVKFMDVYQRSYCHPIETLVDIFQEYPDEIEYIFKPSCVPLMRCGGCCNDEGLECVPTEESNITMQIMRIKPHQGQHIGEMSFLQHNKCECRPKKDHHHHHH

Columns and labels:
[1] = target: soluble PDGFRβ (Fc or His format not stated for the experiment) (human) (UniProt P09619); assay: yeast surface display, flow cytometry with soluble receptor
[2] = target: soluble PDGFRβ (Fc or His format not stated for the experiment) (human) (UniProt P09619); assay: yeast surface display, flow cytometry dot plot: soluble receptor bound (FL1) against surface expression (FL2); receptor concentration not given
[3] = target: human VEGFR on human umbilical vein endothelial cells (HUVECs) (human) (UniProt P35968); assay: flow cytometry titration of the soluble FLAG-tagged protein on HUVECs, anti-FLAG detection

Row | Binder | binding [1] | binding [2] | binding [3]
1 | B1 | binds | binds | 
2 | B2 | binds | binds | 
3 | B3 | binds | binds | 
4 | B4 |  |  | binds
5 | B5 |  |  | binds
